Measurements as given in publication PMC3029254.
No constants are given. Whether binding was seen depends on the method and setting. In cells and extracts the contact can be indirect. Some binding calls cover weakened binding; strength is not graded here.

The chains behind the UniProt entries cited, without tags or fusion partners.
UniProt Q7Z6Z7: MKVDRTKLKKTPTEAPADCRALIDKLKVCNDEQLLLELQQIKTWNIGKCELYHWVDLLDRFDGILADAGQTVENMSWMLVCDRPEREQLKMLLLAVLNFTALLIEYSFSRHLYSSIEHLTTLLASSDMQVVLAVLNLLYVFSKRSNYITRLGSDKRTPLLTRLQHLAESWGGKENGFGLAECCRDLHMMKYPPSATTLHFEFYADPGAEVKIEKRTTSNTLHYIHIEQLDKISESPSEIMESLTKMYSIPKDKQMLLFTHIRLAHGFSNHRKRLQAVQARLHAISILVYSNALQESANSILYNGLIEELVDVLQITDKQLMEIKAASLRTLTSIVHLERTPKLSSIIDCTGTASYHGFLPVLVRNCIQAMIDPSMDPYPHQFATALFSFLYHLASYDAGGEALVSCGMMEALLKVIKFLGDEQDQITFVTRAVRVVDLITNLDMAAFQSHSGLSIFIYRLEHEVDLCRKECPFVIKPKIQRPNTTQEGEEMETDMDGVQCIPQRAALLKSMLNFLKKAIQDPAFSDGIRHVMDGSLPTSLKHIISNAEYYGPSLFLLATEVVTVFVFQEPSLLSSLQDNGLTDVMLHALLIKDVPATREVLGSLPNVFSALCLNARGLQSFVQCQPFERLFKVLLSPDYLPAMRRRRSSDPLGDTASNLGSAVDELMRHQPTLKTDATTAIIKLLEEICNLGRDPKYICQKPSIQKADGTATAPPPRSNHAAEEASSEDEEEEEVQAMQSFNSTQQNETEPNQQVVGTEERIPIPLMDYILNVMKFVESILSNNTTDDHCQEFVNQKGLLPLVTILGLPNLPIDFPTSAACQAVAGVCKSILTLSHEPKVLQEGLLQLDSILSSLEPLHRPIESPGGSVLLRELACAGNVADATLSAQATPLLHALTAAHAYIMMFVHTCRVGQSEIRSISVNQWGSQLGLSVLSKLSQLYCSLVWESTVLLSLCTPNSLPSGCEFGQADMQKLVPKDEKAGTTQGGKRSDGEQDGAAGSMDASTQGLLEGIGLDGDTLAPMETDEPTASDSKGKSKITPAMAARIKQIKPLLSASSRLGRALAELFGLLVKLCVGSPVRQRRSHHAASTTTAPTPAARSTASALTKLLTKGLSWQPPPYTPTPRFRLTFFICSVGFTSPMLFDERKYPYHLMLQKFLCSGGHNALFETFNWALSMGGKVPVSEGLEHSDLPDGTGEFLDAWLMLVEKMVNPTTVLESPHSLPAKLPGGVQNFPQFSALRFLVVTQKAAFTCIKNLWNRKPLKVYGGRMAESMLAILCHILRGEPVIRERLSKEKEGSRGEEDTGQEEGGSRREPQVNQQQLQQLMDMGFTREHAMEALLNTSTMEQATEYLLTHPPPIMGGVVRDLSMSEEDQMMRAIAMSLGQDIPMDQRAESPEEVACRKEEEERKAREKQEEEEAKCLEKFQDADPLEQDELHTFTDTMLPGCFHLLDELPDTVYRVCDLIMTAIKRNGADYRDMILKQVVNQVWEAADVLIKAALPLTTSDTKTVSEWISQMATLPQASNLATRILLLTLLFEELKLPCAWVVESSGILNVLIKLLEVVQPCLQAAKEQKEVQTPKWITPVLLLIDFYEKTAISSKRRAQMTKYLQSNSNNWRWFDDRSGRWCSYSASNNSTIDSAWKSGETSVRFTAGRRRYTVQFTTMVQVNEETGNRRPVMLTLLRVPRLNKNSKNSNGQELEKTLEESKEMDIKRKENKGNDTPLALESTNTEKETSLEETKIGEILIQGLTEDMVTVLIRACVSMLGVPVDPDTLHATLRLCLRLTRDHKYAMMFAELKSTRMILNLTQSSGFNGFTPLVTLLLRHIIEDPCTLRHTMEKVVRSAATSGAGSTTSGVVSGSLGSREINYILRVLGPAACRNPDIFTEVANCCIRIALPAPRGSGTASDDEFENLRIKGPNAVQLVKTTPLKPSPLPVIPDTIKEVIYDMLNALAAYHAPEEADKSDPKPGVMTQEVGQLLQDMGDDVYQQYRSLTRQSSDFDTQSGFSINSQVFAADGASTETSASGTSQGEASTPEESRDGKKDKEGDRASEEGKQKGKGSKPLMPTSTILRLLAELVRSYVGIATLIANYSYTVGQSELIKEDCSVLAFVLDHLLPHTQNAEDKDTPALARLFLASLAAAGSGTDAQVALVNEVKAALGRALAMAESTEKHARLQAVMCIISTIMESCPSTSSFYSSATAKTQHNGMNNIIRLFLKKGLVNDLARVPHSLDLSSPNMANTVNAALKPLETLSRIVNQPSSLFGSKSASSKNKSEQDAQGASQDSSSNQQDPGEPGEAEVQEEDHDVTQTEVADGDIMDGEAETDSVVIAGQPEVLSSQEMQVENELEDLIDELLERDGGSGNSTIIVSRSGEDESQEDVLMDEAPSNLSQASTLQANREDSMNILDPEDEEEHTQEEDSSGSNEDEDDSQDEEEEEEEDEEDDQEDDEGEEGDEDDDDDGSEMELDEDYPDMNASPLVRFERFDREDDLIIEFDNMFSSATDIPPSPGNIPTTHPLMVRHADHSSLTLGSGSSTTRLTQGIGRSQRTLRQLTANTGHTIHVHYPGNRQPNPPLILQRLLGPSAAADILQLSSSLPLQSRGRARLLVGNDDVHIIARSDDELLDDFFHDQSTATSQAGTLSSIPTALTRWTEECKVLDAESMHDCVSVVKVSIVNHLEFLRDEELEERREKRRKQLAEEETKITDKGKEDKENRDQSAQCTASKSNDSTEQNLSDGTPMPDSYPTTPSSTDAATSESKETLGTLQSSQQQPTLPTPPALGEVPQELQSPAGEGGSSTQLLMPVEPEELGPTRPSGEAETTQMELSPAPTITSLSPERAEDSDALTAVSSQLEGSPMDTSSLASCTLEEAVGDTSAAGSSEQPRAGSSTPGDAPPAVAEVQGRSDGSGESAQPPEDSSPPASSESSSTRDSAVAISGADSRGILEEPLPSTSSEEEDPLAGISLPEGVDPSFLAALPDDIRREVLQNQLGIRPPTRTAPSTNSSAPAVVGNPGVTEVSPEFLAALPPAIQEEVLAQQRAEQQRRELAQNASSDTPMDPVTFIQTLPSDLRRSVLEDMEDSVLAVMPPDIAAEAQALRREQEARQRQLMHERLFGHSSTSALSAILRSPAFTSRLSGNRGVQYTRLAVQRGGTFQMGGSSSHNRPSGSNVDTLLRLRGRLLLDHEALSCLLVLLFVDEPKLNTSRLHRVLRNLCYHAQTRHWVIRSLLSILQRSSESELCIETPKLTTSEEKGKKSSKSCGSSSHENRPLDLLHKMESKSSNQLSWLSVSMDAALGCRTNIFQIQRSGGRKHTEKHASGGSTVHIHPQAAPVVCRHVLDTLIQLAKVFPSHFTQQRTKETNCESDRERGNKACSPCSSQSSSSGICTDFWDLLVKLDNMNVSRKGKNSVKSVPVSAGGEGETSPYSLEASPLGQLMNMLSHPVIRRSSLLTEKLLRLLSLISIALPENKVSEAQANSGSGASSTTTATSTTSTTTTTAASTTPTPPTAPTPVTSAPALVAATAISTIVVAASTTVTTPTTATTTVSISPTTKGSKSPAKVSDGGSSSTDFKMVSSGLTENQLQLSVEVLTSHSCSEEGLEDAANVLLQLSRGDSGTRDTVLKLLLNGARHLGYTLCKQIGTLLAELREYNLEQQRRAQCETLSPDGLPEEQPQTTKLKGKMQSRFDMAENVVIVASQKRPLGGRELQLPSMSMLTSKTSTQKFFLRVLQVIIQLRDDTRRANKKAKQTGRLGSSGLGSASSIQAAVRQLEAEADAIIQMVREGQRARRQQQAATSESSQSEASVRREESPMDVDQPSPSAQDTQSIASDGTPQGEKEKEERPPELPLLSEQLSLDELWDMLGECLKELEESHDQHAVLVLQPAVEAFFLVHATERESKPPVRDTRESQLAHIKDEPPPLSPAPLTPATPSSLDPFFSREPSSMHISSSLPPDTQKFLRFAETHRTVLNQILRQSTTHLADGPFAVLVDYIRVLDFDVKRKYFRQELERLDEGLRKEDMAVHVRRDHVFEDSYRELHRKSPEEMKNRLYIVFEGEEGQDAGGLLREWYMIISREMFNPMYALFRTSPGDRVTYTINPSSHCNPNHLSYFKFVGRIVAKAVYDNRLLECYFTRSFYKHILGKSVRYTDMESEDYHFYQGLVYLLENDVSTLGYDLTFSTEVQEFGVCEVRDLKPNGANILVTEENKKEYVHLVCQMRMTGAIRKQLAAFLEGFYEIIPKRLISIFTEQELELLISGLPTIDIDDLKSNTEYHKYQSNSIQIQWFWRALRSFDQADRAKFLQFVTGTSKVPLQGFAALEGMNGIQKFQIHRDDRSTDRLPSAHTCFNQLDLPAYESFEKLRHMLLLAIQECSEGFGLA
UniProt Q07820: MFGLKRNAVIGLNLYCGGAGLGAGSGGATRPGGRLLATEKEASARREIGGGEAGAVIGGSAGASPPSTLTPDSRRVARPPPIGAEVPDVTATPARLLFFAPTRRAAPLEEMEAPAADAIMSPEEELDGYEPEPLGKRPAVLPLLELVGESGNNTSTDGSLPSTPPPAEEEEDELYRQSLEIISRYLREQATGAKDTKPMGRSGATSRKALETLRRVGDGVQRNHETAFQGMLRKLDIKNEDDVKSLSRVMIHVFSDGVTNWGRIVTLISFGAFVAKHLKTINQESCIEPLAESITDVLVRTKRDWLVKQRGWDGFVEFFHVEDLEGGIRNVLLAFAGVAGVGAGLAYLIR

Legend:
[1] = molecular target: Mule (Mcl-1 ubiquitin ligase E3 (Mule)/ARF-BP1) (human (endogenous in THP-1)) (UniProt Q7Z6Z7); experiment: co-IP; lysates of mock-infected or D39 pneumococcus-exposed differentiated THP-1 cells (16 h, with or without pepstatin A) in 2% CHAPS buffer (20 mM Tris-HCl pH 7.4, 137 mM NaCl, 2 mM EDTA); anti-Mule (Abcam) overnight at 4°C, protein A agarose; blotted for Mule, Hsp70 and Mcl-1; control with non-specific rabbit IgG
[2] = molecular target: Mcl-1 (human (endogenous in THP-1)) (UniProt Q07820); experiment: co-IP; lysates of mock-infected or D39 pneumococcus-exposed differentiated THP-1 cells (time course 4-16 h; at 16 h with or without pepstatin A) in 2% CHAPS buffer (20 mM Tris-HCl pH 7.4, 137 mM NaCl, 2 mM EDTA); anti-Mcl-1 (sc-819) overnight at 4°C, protein A agarose; blotted for Hsp70, Mule and Mcl-1; control with an excess of the Mcl-1 peptide

Substance: Mcl-1 (from UniProt Q07820 1-350)
- binding [1]: binds

Substance: Mule (Mcl-1 ubiquitin ligase E3 (Mule)/ARF-BP1) (from UniProt Q7Z6Z7 1-4374) (enzyme)
- binding [2]: binds
